For at least one compound, name, drawing or mass did not settle the structure.
Experiments:
Format in all cases: in vivo, human
[1] = system: patients with type 2 diabetes not adequately controlled with metformin; assay: 24-hour plasma glucose profile (PDY10931); conditions: Ex 1; add-on to metformin; 4 weeks QD sc
[2] = system: patients with type 2 diabetes not adequately controlled with metformin; assay: Postprandial plasma glucose after standardized breakfast, 4-week QD treatment (PDY10931); conditions: Ex 1, baseline before treatment
[3] = system: patients with type 2 diabetes not adequately controlled with metformin; assay: Postmeal pro-insulin, free insulin, C-peptide and glucagon after standardized breakfast (PDY10931)
[4] = Ex 1, 4 weeks QD sc add-on to metformin

## CCCCCCCCCCCCCCCC(=O)N[C@@H](CCC(=O)NCCCC[C@H](NC(=O)[C@H](C)NC(=O)[C@H](C)NC(=O)[C@H](CCC(N)=O)NC(=O)CNC(=O)[C@H](CCC(=O)O)NC(=O)[C@H](CC(C)C)NC(=O)[C@H](Cc1ccc(O)cc1)NC(=O)[C@H](CO)NC(=O)[C@H](CO)NC(=O)[C@@H](NC(=O)[C@H](CC(=O)O)NC(=O)[C@H](CO)NC(=O)[C@@H](NC(=O)[C@H](Cc1ccccc1)NC(=O)[C@@H](NC(=O)CNC(=O)[C@H](CCC(=O)O)NC(=O)[C@H](C)NC(=O)[C@@H](N)Cc1cnc[nH]1)[C@@H](C)O)[C@@H](C)O)C(C)C)C(=O)N[C@@H](CCC(=O)O)C(=O)N[C@@H](Cc1ccccc1)C(=O)N[C@H](C(=O)N[C@@H](C)C(=O)N[C@@H](Cc1c[nH]c2ccccc12)C(=O)N[C@@H](CC(C)C)C(=O)N[C@H](C(=O)N[C@@H](CCCNC(=N)N)C(=O)NCC(=O)N[C@@H](CCCNC(=N)N)C(=O)NCC(=O)O)C(C)C)[C@@H](C)CC)C(=O)O [Liraglutide]
[1]
  24-hour plasma glucose profile at Day 28 compared to Day −1: overall reduction in plasma glucose
[2]
  Day −1 corrected plasma glucose AUC0:30-4:30 h (baseline), mean (SEM): 183.86 (12.24) h*mg/dL
[3]; [4]
  C-peptide estimated corrected AUC0:30-4:30 h change from Baseline to Day 28, mean (SE): 1.04 (0.68) ng*h/mL
  Free insulin estimated corrected AUC0:30-4:30 h change from Baseline to Day 28, mean (SE): 5.34 (7.33) μlU*h/mL
  Glucagon estimated corrected AUC0:30-4:30 h change from Baseline to Day 28, mean (SE): −25.28 (7.77) pg*h/mL
[3]; Ex 1, baseline
  C-peptide Day −1 corrected AUC0:30-4:30 h (baseline), mean (SEM): 9.99 (0.59) ng*h/mL
  Free insulin Day −1 corrected AUC0:30-4:30 h (baseline), mean (SEM): 93.24 (6.95) μlU*h/mL
  Glucagon Day −1 corrected AUC0:30-4:30 h (baseline), mean (SEM): 16.47 (9.58) pg*h/mL
  Pro-insulin Day −1 corrected AUC0:30-4:30 h (baseline), mean (SEM): 6.54 (0.66) μlU*h/mL

Source: patent US20130065828A1, “PHARMACEUTICAL COMBINATION FOR USE IN GLYCEMIC CONTROL IN DIABETES TYPE 2 PATIENTS” (SANOFI-AVENTIS DEUTSCHLAND GMBH, priority 2011, published 2013)
